Laboratory results as given in PubChem BioAssay AID651647 (Sanford-Burnham Center for Chemical Genomics, 2012).
Some of the results follow.

Experiment: MT1-MMP activation inhibitors, cellular reporter – HT1080 RFP-PRO-GFP cells, GFP/RFP fluorescence, primary screen (AID 651647)
Conditions: GFP/RFP ratio fluorescence, overnight, RFP expression control read, at 20 µM
Summary of the method: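 Assay system: RFP-PRO-GFP reporter HT1080 cells; read-out basis: GFP/RFP fluorescence ratio; benchmarks: DMSO wells and RFP-L50D-GFP cells; doses: 20 µM single dose, 1% DMSO; schedule: overnight cell settling, then overnight compound exposure, 37 °C, 5% CO2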
`CN(C)c1ccc(C(=O)NCC2(N3CCCCC3)CCCCC2)cc1` showed an RFP signal change of 4.35%. `O=C(NCC1(N2CCCCC2)CCCCC1)c1ccco1` gave an RFP signal change of 7.5%. Compound `CC(C)(C)n1nnnc1C(c1ccnc2ccccc12)N1CCC(n2c(=O)[nH]c3ccccc32)CC1` (configuration not stated) has an RFP signal change of -1.78%. For `COc1ccc(C(c2nnnn2C2CCCCC2)N2CCC(n3c(=O)[nH]c4ccccc43)CC2)cc1` (configuration not stated), the RFP signal change was -12.9%. With `CCN1CCC(Nc2cccc(F)c2)CC1` the RFP signal change was -2.55%. Work on `Cc1ccccc1NC1(C#N)CCN(Cc2ccccc2)CC1` yielded an RFP signal change of -2.02%. With `O=C(O)C1(Nc2ccccc2)CCN(Cc2ccccc2)CC1` the RFP signal change was -2.58%. `NN(c1ccccc1)C1CCN(CCc2ccccc2)CC1` showed an RFP signal change of 4.06%. Work on `CC(C)(C)OC(=O)N1CCC(Nc2ccccc2)CC1` yielded an RFP signal change of -5.42%. In the case of `CCCOc1ccc(C(=O)NCC2(N(C)C)CCCCC2)cc1`, the RFP signal change is reported as -0.216%. In the case of `O=c1[nH]c2ccccc2n1C1CCN(C(c2cc3ccccc3o2)c2nnnn2C2CCCC2)CC1` (configuration not stated), the RFP signal change is reported as -18.9%. Compound `CN1CCC(Nc2ccc(F)c(Cl)c2)CC1` has an RFP signal change of 5.15%. For `CCOc1ncccc1C(=O)NCC1(N2CCOCC2)CCCCC1`, the RFP signal change was -3.4%. Compound `CN1CCC(Nc2ccc(Cl)cc2)CC1` has an RFP signal change of 0.34%. Work on `COc1cccc(C(c2nnnn2C2CCCC2)N2CCC(n3c(=O)[nH]c4ccccc43)CC2)c1OC` (configuration not stated) yielded an RFP signal change of -8.15%. With `COc1cc(OC)cc(C(=O)NCC2(N3CCOCC3)CCCCC2)c1` the RFP signal change was -2.17%. Work on `COc1cccc(C(=O)N(c2cc(C)cc(C)c2)C2CCN(C(=O)OC(C)(C)C)CC2)c1` yielded an RFP signal change of -12.3%. `CCC(CO)(C(=O)OC1CN2CCC1CC2)c1ccccc1` (configuration not stated) showed an RFP signal change of -2.68%. With `O=c1[nH]c2ccccc2n1C1CCN(C(c2cccs2)c2nnnn2C2CCCCC2)CC1` (configuration not stated) the RFP signal change was -7.05%. Compound `O=c1[nH]c2ccccc2n1C1CCN(C(c2ccnc3ccccc23)c2nnnn2C2CCCC2)CC1` (configuration not stated) has an RFP signal change of -4.77%. With `COc1ccc(C(=O)NCC2(N3CCOCC3)CCCCC2)cc1OC` the RFP signal change was -0.167%. `COc1cc(C(=O)NCC2(N3CCOCC3)CCCCC2)cc(OC)c1C` gave an RFP signal change of -0.0903%. Compound `CCCCn1nnnc1C(c1ccccc1)N1CCC(n2c(=O)[nH]c3ccccc32)CC1` (configuration not stated) has an RFP signal change of 2.63%. In the case of `O=C(NCC1(N2CCOCC2)CCCCC1)c1cc(Br)ccc1Cl`, the RFP signal change is reported as -1.58%. Work on `O=c1[nH]c2ccccc2n1C1CCN(C(c2cccs2)c2nnnn2C2CCCC2)CC1` (configuration not stated) yielded an RFP signal change of -2.79%. Work on `O=C(OC1CN2CCC1CC2)C1c2ccccc2C=Cc2ccccc21` (configuration not stated) yielded an RFP signal change of 5.53%. `CCCCn1nnnc1C(c1cccc(OC)c1OC)N1CCC(n2c(=O)[nH]c3ccccc32)CC1` (configuration not stated) gave an RFP signal change of -4.62%. `COc1cccc(C(c2nnnn2C(C)(C)C)N2CCC(n3c(=O)[nH]c4ccccc43)CC2)c1OC` (configuration not stated) showed an RFP signal change of 1.77%. `CCOC(=O)N1CCC(Nc2ccc(C)cc2)CC1` showed an RFP signal change of 0.795%. In the case of `N/C(=N\O)c1c(N)no[n+]1[O-]`, the RFP signal change is reported as 4.42%. In the case of `N#Cc1ccc(C(=O)NCC2(N3CCCCC3)CCCCC2)cc1`, the RFP signal change is reported as -1.35%. Work on `CC(C)(C)n1nnnc1C(c1cccc2ccccc12)N1CCC(n2c(=O)[nH]c3ccccc32)CC1` (configuration not stated) yielded an RFP signal change of -11.8%. `CN(C)C1(CNC(=O)c2cccc(C#N)c2)CCCCC1` gave an RFP signal change of 1.21%. In the case of `CCCN1CCC(Nc2cc(OC)cc(OC)c2)CC1`, the RFP signal change is reported as 3.97%. Work on `O=c1[nH]c2ccccc2n1C1CCN(C(c2ccccc2)c2nnnn2C2CCCC2)CC1` (configuration not stated) yielded an RFP signal change of -6.18%. In the case of `Cc1cc(N(CCCl)CCCl)ccc1C=O`, the RFP signal change is reported as -1.64%. Work on `c1ccc(CN2CCC(Nc3ccccc3)CC2)cc1` yielded an RFP signal change of -1.15%.
